Results from article doi:10.1101/2025.08.01.668199, “Vacuolar Phosphatidylinositol 3,4,5-trisphosphate controls fusion through binding Vam7, and membrane microdomain assembly” (bioRxiv, 2025).
These are yes or no findings as the source states them, for the method shown. Binding seen in cells or lysates may run through a third protein. Some binding calls cover weakened binding; strength is not graded here. One block for each molecule: values may come before it.

By UniProt entry, the sequences of proteins in these tests, tags left out.
UniProt P27801: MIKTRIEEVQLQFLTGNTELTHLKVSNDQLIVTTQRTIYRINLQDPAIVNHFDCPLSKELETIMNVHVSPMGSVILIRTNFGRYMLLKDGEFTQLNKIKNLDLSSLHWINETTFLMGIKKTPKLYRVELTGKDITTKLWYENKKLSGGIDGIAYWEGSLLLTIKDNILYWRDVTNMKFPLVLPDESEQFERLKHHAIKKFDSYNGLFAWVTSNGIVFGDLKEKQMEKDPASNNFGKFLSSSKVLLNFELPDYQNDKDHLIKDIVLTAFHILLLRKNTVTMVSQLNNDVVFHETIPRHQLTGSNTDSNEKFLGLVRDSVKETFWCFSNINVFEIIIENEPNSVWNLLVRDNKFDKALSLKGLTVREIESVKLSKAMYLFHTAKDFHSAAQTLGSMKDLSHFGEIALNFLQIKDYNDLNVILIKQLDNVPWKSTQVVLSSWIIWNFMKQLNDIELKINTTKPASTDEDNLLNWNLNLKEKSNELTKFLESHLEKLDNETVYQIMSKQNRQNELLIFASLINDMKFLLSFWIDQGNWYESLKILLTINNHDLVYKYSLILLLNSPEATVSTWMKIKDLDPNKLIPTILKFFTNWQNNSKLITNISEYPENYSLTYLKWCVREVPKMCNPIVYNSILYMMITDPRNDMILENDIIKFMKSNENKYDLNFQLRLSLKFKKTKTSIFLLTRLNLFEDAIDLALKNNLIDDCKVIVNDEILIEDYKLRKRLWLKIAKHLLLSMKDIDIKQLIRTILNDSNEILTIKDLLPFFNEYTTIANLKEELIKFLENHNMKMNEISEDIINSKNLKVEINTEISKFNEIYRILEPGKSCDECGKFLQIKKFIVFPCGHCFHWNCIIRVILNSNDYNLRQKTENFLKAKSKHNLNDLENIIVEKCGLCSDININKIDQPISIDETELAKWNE
UniProt P20795: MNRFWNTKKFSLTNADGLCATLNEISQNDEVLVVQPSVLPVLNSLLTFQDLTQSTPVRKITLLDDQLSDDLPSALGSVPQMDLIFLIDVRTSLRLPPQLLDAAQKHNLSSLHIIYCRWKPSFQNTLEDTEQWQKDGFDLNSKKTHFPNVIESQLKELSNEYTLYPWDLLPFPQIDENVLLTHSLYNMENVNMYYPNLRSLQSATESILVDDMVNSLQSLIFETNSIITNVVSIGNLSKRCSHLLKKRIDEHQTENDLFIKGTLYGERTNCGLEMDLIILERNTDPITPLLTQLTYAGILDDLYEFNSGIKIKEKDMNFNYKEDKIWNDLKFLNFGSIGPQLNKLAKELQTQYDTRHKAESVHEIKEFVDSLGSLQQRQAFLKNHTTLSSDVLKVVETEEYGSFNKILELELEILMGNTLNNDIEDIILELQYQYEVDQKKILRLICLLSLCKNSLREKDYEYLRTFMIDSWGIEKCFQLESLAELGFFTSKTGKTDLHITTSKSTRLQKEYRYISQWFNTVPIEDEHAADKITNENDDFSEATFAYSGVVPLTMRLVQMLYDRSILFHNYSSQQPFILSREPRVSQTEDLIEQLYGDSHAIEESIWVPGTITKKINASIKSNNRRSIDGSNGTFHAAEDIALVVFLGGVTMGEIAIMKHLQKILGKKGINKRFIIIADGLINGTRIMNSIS
UniProt Q04338: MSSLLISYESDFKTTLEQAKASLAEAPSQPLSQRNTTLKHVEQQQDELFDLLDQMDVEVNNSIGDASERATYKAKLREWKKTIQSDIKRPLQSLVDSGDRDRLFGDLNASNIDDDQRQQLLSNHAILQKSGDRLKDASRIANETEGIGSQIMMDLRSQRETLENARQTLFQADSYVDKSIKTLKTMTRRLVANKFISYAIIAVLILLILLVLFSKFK

What was measured:
[1] = target: T1, CBP-Vam3 (Vam3 with an internal calmodulin binding peptide between the N-terminal helical Habc domain and the SNARE domain) (S. cerevisiae (expressed in strain BJ3505)) (UniProt Q12241); assay: pull-down; trans-SNARE complex isolation: 15X fusion reactions of CBP-VAM3 nyv1Δ and VAM3 NYV1 vacuoles, 60 min 27°C, buffer alone (also with 2 mM NEM or 50-200 nM GST-PTEN); membranes pelleted, solubilised in 20 mM Tris-Cl pH 7.5, 150 mM NaCl, 1 mM MgCl2, 0.5% Nonidet P-40 alternative, 10% …; CBP-Vam3 held on calmodulin beads with 2 mM CaCl2 overnight at 4°C; immunoblot
T1 sequence: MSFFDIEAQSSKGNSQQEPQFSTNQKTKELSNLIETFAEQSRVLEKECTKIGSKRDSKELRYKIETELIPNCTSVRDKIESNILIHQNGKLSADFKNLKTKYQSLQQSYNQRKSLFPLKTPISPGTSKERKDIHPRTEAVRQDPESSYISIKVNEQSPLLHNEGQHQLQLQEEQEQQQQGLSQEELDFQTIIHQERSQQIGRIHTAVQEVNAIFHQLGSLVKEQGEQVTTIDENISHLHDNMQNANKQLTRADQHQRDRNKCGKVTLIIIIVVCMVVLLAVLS

[2] = target: T1, CBP-Vam3 (Vam3 with an internal calmodulin binding peptide between the N-terminal helical Habc domain and the SNARE domain) (S. cerevisiae (expressed in strain BJ3505)); assay: pull-down; as a1, fusion reactions treated with 50, 100, 150 or 200 nM GST-PTEN (removes PI(3,4,5)P3); CBP-Vam3 held on calmodulin beads; immunoblot
[3] = target: T1, CBP-Vam3 (Vam3 with an internal calmodulin binding peptide between the N-terminal helical Habc domain and the SNARE domain) (S. cerevisiae (expressed in strain BJ3505)); assay: pull-down; as a1, fusion reactions treated with 2 mM NEM (prevents SNARE priming); CBP-Vam3 held on calmodulin beads; immunoblot

Molecule: HOPS subunit Vps18 (from UniProt P27801 1-918)
binding [1]: binds

Molecule: HOPS subunit Vps33 (from UniProt P20795 1-691)
binding [1]: binds

Molecule: Qb-SNARE Vti1 (from UniProt Q04338 1-217)
binding [2]: no binding (condition: with 200 nM GST-PTEN)
binding [1]: binds

The next lines start with results.

binding [3]: no binding (condition: with 2 mM NEM)
binding [1]: binds
B1: R-SNARE Nyv1 (protein, UniProt Q12255 1-253)
chain: MKRFNVSYVEVIKNGETISSCFQPFQKNENYGTITSANEQITPVIFHNLIMDMVLPKVVPIKGNKVTKMSMNLIDGFDCFYSTDDHDPKTVYVCFTLVDMPKILPIRILSGLQEYESNATNELLSSHVGQILDSFHEELVEYRNQTLNSSGNGQSSNGNGQNTISDIGDATEDQIKDVIQIMNDNIDKFLERQERVSLLVDKTSQLNSSSNKFRRKAVNIKEIMWWQKVKNITLLTFTIILFVSAAFMFFYLW
binding [2]: no binding (condition: with GST-PTEN (50-200 nM))

binding [1]: binds
B2: soluble Qc-SNARE Vam7 (protein, UniProt P32912 1-316)
chain: MAANSVGKMSEKLRIKVDDVKINPKYVLYGVSTPNKRLYKRYSEFWKLKTRLERDVGSTIPYDFPEKPGVLDRRWQRRYDDPEMIDERRIGLERFLNELYNDRFDSRWRDTKIAQDFLQLSKPNVSQEKSQQHLETADEVGWDEMIRDIKLDLDKESDGTPSVRGALRARTKLHKLRERLEQDVQKKSLPSTEVTRRAALLRSLLKECDDIGTANIAQDRGRLLGVATSDNSSTTEVQGRTNNDLQQGQMQMVRDQEQELVALHRIIQAQRGLALEMNEELQTQNELLTALEDDVDNTGRRLQIANKKARHFNNSA
